The list shows a part of the results, in another mix than the full data. The data scatter; read single values as rough.
The targets below were run with COC(=O)/C=C/c1ccccc1 [methyl cinnamate] (assay: log2 ratio of iodoacetamide-alkyne labeling of the cysteine site, DMSO over compound (competition); higher = stronger covalent engagement of the cysteine by the compound, active = 1 or more). Settings: 500 µM; treatment time 1 h; system: HEK293T cell lysate.
Method in brief: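 HEK293T lysate (2 mg/mL) was incubated with electrophile (500 µM) or vehicle for 1 h at ambient temperature and then with iodoacetamide alkyne for 1 h. Labelled proteins were clicked to sCIP-TMT reagents, pooled, digested, enriched on streptavidin and measured by Orbitrap Eclipse LC-MS/MS with FAIMS, with FragPipe quantification. The per-cysteine log2 competition ratio is mean control-channel reporter intensity over mean compound-channel reporter intensity. Across three replicates with duplicate channels, cysteines quantified in only one replicate were excluded.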

The chains behind the UniProt entries cited, without tags or fusion partners. Where a name states a change or a piece, a line headed by the entry shows the natural chain unless it says otherwise.
UniProt Q86WB0: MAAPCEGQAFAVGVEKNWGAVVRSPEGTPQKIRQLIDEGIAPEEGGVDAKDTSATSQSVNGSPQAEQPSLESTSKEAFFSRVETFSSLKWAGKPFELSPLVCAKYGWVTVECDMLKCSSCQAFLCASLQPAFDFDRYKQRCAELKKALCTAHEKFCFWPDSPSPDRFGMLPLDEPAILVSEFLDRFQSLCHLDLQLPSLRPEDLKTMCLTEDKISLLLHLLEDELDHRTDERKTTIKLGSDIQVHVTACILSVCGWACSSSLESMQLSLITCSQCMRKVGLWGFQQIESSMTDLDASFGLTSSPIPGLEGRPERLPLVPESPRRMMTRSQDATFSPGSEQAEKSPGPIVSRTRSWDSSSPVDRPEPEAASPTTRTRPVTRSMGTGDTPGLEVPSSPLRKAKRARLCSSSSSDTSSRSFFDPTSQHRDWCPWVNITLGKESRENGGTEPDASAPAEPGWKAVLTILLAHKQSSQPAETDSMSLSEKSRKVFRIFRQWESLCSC
UniProt Q7Z4Q2: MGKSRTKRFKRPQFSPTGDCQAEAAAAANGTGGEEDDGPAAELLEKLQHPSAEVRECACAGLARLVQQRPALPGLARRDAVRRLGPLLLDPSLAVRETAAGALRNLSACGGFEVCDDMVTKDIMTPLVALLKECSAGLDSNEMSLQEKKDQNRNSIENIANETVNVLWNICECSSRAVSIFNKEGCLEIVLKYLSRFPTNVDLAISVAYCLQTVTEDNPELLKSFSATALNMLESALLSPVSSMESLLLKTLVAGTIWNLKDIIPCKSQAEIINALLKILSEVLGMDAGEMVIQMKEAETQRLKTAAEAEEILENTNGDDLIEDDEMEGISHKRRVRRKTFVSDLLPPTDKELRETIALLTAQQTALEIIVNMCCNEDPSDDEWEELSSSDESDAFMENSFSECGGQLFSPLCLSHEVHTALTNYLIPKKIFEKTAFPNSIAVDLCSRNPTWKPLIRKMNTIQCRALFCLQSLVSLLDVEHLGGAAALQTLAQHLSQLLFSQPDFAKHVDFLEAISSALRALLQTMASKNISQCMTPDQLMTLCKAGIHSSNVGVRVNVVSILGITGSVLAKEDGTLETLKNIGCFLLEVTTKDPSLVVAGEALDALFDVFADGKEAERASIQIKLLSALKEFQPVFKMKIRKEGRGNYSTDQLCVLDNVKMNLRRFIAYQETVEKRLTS
UniProt Q7Z7A3: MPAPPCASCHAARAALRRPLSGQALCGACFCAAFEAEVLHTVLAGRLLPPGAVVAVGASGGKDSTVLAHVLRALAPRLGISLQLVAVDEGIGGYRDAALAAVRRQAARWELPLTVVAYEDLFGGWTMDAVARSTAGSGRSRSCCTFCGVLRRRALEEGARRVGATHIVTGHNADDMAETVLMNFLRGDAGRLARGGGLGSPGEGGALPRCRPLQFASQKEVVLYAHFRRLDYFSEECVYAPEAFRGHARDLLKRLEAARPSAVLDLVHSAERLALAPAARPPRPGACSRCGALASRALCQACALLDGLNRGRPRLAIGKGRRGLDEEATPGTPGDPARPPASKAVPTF
UniProt Q86W56: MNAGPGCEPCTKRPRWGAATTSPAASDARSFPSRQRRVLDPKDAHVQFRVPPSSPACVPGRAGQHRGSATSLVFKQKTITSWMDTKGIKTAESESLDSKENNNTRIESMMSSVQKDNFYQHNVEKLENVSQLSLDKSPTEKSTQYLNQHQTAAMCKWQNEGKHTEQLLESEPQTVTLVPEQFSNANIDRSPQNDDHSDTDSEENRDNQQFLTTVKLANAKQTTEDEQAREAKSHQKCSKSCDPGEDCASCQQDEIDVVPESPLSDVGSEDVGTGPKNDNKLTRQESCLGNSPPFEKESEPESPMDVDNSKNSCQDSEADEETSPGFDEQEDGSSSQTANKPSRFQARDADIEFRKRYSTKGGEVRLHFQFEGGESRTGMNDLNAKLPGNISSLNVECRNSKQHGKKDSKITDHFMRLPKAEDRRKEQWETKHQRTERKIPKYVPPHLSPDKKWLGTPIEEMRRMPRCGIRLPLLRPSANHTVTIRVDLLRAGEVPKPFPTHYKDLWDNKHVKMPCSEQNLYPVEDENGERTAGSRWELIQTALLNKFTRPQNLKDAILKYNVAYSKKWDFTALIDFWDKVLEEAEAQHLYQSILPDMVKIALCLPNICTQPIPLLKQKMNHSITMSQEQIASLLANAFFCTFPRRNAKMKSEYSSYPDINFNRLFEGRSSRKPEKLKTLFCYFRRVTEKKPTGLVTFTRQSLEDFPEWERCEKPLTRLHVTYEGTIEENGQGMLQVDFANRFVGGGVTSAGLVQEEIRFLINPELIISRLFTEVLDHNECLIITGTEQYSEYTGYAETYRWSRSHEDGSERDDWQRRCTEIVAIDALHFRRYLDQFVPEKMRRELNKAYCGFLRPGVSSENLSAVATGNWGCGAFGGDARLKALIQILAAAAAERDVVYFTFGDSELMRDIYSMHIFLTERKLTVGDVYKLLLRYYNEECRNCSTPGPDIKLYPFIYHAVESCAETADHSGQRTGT
UniProt Q7Z2W4: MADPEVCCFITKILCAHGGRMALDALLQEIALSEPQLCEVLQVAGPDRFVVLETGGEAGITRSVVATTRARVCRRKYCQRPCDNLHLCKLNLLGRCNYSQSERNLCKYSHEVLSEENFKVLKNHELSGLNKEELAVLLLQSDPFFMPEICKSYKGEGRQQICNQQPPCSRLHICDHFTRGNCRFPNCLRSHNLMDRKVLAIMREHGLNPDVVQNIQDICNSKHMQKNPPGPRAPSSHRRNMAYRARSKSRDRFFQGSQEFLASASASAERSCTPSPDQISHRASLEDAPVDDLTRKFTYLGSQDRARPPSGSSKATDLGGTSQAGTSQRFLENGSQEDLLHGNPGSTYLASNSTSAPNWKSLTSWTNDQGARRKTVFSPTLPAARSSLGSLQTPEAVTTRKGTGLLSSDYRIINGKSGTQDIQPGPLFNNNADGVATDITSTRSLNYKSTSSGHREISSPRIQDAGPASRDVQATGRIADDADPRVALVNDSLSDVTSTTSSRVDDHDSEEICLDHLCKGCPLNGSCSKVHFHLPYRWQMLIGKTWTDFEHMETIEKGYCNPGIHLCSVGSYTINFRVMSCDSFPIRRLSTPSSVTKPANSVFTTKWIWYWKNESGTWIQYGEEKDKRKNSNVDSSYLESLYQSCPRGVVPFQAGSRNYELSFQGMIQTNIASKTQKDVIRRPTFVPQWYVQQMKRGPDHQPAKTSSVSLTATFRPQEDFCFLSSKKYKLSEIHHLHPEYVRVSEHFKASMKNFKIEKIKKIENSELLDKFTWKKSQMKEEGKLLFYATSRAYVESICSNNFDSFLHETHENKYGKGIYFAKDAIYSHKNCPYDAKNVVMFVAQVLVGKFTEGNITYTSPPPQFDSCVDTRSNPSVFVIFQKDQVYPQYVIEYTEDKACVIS
UniProt Q8IY37: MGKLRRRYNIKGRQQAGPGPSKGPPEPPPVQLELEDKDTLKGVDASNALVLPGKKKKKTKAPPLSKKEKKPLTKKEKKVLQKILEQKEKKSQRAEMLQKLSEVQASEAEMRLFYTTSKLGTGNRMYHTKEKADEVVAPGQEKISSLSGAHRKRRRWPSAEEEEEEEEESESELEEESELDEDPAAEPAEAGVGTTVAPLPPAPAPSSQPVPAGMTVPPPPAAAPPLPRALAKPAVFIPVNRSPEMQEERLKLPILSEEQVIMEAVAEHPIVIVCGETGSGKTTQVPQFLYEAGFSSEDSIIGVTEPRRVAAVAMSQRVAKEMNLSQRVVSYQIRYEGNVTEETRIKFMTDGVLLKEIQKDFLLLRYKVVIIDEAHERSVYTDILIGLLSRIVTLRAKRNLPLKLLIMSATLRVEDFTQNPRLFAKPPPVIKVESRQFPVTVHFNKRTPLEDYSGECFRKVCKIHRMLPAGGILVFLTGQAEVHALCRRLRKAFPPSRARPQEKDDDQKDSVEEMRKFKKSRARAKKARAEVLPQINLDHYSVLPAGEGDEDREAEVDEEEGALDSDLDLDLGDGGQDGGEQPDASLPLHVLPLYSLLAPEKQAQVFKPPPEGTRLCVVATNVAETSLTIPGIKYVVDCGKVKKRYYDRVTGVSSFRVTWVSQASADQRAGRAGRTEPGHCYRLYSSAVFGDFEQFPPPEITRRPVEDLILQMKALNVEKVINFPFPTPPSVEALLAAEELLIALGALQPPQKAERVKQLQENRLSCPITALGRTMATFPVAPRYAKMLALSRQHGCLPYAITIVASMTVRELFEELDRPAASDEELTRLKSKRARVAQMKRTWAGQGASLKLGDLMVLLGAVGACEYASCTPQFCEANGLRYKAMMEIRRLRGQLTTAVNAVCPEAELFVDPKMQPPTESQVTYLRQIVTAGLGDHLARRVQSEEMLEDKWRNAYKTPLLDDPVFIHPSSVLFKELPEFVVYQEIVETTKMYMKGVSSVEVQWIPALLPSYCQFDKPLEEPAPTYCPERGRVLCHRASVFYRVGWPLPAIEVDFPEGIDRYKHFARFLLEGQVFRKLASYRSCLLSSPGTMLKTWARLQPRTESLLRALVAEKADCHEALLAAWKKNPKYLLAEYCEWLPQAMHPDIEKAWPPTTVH
UniProt Q7Z7L1: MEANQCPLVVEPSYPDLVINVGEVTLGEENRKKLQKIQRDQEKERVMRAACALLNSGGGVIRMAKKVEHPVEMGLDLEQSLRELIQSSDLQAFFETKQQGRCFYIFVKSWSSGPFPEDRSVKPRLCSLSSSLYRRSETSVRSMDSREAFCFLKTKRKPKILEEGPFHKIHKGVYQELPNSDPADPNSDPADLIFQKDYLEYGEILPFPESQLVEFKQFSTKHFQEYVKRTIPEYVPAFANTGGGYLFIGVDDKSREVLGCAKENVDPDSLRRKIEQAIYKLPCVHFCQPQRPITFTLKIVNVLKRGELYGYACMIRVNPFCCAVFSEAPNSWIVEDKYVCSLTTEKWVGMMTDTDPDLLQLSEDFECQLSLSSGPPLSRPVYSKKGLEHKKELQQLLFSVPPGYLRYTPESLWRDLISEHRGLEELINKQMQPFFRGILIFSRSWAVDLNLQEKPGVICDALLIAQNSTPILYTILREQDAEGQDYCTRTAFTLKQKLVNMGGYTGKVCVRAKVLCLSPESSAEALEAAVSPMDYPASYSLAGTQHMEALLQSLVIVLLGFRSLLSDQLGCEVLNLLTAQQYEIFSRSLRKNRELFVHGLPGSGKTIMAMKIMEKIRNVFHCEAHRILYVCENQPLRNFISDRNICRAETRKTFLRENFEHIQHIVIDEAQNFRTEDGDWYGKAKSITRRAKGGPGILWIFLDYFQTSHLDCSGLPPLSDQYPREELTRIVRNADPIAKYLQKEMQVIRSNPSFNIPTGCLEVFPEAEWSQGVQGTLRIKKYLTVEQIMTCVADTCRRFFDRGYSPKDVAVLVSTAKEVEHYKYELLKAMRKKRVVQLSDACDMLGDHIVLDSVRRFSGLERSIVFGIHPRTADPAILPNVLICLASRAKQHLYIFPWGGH
UniProt Q86SX6: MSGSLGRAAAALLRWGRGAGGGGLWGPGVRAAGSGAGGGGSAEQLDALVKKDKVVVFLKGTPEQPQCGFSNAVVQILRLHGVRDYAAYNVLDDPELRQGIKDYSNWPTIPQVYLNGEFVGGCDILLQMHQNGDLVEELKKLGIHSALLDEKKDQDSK
UniProt Q8IXM2, whole entry, looked up: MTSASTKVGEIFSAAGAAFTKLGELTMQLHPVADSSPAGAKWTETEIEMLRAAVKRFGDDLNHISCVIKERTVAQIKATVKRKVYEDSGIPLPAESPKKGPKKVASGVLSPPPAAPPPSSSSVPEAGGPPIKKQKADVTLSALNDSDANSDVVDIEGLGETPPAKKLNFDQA

log2 ratio of iodoacetamide-alkyne labeling, inactive:
ZC3HC1 C502 (UniProt Q86WB0) 0.0565
HEATR3 C534 (UniProt Q7Z4Q2) 0.15
UniProt Q7Z7A3_C287 -0.219
PARG C963 (UniProt Q86W56) 0.0149
ZC3HAV1 C162 (UniProt Q7Z2W4) 0.0769
UniProt Q7LBC6_C1448 -0.0343
DHX37 C1026 (UniProt Q8IY37) 0.262
HUWE1 C1628 (UniProt Q7Z6Z7) 0.229
ZC3HAV1 C38 (UniProt Q7Z2W4) -0.145
SLFN11 C51 (UniProt Q7Z7L1) -0.0631
Q8F0_C443 0.0691
GLRX5 C67 (UniProt Q86SX6) 0.298
UniProt Q8IXM2_C66 0.471
PNPLA6 C409 (UniProt Q8IY17) 0.188

A run of entries from the list above, as a working copy:
log2 ratio of iodoacetamide-alkyne labeling, inactive:
ZC3HAV1 C38 (UniProt Q7Z2W4) -0.145
SLFN11 C51 (UniProt Q7Z7L1) -0.0631

— the supplement of paper PMC11006884
